Publication PMC5036183
Results are given in words; binding and its absence hold for the method and conditions named. Binding seen in cells or lysates may run through a third protein. Some entries that bind do so weakly or less than the wild type.

By UniProt entry, the sequences of proteins in these tests, tags left out.
UniProt Q9Z148: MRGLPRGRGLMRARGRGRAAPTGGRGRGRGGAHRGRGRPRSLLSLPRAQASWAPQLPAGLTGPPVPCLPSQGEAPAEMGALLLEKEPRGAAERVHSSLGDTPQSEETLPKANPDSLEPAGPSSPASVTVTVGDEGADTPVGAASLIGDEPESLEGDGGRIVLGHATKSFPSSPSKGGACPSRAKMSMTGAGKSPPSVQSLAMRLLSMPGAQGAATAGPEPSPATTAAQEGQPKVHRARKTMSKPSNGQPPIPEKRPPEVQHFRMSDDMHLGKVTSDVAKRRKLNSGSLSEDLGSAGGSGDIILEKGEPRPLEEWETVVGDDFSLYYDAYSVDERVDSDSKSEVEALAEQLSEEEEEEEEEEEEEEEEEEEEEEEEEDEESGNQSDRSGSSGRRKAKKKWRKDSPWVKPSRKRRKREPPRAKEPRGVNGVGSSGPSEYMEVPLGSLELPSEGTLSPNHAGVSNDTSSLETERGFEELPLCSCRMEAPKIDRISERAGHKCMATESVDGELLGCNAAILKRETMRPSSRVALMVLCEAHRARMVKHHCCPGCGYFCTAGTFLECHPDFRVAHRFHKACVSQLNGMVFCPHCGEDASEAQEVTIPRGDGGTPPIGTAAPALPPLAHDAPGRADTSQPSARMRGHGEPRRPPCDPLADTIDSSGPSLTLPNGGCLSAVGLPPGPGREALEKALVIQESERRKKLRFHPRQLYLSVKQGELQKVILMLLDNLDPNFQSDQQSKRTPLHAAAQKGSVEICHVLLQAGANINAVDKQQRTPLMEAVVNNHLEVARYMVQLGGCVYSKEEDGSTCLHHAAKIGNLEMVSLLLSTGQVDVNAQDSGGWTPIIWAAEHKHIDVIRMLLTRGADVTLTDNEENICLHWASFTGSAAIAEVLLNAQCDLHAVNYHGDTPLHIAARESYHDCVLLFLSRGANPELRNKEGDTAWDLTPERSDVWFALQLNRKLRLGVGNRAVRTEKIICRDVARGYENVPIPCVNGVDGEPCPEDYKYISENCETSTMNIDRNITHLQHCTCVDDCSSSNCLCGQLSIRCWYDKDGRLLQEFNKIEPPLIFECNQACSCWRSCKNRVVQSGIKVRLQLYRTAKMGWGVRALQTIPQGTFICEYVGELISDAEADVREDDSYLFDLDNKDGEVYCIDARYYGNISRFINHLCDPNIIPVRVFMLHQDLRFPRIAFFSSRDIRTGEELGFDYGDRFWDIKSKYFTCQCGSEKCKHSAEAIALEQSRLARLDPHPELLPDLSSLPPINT
UniProt Q9Z2V6: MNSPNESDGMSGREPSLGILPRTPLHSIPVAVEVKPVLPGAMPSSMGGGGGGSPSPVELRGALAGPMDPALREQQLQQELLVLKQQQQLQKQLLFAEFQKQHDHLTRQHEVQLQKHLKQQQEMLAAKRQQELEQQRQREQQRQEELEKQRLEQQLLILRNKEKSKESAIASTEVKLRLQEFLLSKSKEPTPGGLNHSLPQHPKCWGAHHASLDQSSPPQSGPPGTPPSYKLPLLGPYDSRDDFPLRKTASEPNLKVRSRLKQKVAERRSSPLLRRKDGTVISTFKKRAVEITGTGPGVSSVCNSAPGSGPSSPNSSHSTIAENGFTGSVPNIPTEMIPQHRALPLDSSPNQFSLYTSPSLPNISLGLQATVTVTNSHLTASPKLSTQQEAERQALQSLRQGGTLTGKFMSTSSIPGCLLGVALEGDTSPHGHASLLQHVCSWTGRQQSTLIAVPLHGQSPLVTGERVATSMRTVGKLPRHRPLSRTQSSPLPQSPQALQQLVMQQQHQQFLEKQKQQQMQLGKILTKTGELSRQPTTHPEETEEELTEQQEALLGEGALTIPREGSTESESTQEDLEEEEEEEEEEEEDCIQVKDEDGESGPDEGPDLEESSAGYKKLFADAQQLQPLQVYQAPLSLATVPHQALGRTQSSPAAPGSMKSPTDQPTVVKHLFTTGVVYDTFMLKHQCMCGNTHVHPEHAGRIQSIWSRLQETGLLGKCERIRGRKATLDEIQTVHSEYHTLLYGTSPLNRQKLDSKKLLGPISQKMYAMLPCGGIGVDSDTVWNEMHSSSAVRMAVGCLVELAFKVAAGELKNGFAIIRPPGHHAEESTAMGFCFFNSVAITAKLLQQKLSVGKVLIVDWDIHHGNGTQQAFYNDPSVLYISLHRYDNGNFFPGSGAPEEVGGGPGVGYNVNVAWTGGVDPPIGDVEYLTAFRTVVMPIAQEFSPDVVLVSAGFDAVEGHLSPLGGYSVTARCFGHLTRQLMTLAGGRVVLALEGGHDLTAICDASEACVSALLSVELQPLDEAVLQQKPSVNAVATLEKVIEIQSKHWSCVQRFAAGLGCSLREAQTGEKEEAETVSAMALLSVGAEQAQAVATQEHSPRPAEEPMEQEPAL
UniProt Q96KQ7: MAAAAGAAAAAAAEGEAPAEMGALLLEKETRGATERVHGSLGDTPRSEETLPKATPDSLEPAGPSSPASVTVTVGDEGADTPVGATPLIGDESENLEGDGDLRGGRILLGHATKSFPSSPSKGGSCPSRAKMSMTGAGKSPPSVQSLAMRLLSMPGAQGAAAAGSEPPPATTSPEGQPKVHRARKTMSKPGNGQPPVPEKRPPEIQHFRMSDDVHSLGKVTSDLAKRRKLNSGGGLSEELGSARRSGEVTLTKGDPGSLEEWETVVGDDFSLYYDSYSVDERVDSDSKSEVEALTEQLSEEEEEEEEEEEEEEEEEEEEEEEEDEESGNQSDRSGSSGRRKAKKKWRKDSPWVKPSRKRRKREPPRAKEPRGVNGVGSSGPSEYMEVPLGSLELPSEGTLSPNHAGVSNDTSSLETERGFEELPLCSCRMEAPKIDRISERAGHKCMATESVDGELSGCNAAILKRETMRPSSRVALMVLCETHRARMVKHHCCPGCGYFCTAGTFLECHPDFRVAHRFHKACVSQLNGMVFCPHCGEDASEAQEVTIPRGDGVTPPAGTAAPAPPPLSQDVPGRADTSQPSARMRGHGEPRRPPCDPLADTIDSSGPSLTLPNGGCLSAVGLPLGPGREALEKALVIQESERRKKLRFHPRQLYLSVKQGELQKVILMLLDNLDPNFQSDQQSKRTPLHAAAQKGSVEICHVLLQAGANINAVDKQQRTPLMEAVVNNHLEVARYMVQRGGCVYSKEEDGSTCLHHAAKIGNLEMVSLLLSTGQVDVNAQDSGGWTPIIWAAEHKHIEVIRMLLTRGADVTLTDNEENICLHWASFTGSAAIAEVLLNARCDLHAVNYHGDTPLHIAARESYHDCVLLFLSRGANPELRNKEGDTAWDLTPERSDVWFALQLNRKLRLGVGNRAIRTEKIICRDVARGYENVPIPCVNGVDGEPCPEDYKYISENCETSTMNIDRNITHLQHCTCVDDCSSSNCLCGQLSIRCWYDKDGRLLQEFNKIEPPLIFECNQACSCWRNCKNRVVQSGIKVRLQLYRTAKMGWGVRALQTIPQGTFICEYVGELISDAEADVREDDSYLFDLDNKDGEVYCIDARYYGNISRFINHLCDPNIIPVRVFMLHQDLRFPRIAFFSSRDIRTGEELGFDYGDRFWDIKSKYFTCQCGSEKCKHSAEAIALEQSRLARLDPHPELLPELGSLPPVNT
UniProt Q06413: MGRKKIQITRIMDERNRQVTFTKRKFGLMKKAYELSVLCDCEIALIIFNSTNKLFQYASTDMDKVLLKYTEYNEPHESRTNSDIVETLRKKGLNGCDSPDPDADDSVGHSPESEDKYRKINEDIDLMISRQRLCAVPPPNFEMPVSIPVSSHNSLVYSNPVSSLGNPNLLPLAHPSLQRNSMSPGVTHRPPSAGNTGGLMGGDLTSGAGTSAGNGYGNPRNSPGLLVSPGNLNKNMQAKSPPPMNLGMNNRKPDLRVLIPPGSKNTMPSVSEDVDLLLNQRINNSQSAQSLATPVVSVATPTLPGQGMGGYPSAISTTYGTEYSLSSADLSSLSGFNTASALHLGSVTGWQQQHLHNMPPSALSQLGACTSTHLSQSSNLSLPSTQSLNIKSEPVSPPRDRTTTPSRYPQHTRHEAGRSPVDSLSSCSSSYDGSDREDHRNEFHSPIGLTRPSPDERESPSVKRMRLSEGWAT
UniProt Q8CFN5: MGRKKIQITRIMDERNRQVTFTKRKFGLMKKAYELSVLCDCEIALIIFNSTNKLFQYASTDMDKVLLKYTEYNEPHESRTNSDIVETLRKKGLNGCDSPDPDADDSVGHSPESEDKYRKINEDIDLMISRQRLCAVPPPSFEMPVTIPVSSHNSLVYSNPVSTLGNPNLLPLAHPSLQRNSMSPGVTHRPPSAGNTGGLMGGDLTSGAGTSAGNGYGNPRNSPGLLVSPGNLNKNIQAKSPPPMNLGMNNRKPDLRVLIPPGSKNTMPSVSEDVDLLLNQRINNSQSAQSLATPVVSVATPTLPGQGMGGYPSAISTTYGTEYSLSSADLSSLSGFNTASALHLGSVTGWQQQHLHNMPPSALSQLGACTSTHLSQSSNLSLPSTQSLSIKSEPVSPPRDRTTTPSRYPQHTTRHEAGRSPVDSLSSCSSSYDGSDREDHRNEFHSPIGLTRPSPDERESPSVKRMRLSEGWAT

Key:
[1] = target: endogenous G9a (mouse (endogenous in C2C12)) (UniProt Q9Z148); assay: co-IP; endogenous G9a immunoprecipitated from C2C12 lysates (1 mg lysate, 2 μg anti-G9a); IgG as negative control; blot for endogenous MEF2C
[2] = target: endogenous HDAC5 (mouse (endogenous in C2C12)) (UniProt Q9Z2V6); assay: co-IP; endogenous HDAC5 immunoprecipitated (1 mg lysate, 2 μg anti-HDAC5) from lysates of proliferating pBABE and pBABE-G9a (G9a over-expressing) C2C12 cells; blots with anti-G9a, anti-MEF2C, anti-HDAC5
Flag-G9a (full length) = Flag-G9a (full length) (UniProt Q96KQ7); assay: co-IP; HEK293T cells co-transfected; RIPA lysates incubated with anti-Flag agarose beads; immunoblot with anti-Flag, anti-GFP or anti-MEF2C; in Fig. 3a cells treated or not with UNC0638 for 48 hr
[3] = target: Flag-MEF2C full length (FL) (UniProt Q06413); assay: as above
Flag-MEF2C = Flag-MEF2C (UniProt Q06413); assay: as above

For “endogenous MEF2C (from UniProt Q8CFN5 1-474)”, the binding [1] was “binds” and the binding [2] was “binds”.
For “MEF2C (co-transfected with Flag-G9a, Fig. 3b) (from UniProt Q06413 1-473)”, the binding (Flag-G9a (full length)) was “binds”.
“EGFP-G9a (from UniProt Q96KQ7 1-1210) (enzyme)” was tested, and the binding [3] was “binds” and the binding (Flag-MEF2C) was “binds”.
For “endogenous G9a (from UniProt Q9Z148 1-1263) (enzyme)”, the binding [2] was “binds”.
